Some of the results follow.
Key:
Assay in all cases: log2 fold change, soluble protein after heating vs DMSO (PISA); higher = thermal stabilisation; K562 lysate, 10 uM; active = over 0.2 and 3.5 SD of the protein, either way, in both replicates (recomputed)
[1] = compound: C1=CC=C(C=C1)[C@H](COC2=CC3=C(C=C2)NC(=O)N3)NC(=O)C4=CC=CN(C4=O)CC5=CC(=C(C=C5)F)F
Summary of the method: (§1)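 Soluble protein was defined as the supernatant remaining after 21,000xg for 90 min, following pooling of heated aliquots and adjustment to 0.5% NP-40 at 4°C. Before that, crude K562 extract at 1 mg/mL protein in PBS pH 7.4 with 1 mM MgCl2 was treated with 10 μM compound for 30 min and heated for 3 min across 48°C-58°C. Quantification used TMTpro 16plex LC-MS/MS with channel sums equalised, and values are log-two fold changes in thermal stability relative to solvent controls from duplicates.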

Chains of the proteins cited; added tags and fusions are not shown. Lines headed by an entry give the natural chain unless they say otherwise; changes in a name come on top.
UniProt Q9BXD5: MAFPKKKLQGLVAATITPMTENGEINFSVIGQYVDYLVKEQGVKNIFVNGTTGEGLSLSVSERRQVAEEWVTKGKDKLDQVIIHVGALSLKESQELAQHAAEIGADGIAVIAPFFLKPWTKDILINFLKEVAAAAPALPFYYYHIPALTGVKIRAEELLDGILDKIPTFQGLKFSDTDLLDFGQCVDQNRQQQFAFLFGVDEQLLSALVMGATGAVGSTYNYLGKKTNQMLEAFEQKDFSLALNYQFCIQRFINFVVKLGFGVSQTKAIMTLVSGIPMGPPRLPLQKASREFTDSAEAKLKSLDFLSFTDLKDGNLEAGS
UniProt Q9H857: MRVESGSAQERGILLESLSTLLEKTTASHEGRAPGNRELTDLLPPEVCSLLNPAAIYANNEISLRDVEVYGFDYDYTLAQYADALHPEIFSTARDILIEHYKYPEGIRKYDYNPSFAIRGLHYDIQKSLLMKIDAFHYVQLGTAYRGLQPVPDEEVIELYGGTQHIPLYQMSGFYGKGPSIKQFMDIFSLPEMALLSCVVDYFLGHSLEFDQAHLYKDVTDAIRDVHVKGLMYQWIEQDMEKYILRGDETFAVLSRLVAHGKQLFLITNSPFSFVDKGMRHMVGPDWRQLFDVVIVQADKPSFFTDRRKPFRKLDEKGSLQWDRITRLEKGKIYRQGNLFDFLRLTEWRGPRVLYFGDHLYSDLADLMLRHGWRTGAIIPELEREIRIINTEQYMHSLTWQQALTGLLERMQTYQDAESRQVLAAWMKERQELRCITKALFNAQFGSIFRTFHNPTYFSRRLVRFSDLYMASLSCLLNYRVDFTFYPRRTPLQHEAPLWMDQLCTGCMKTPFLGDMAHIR
UniProt Q96D46: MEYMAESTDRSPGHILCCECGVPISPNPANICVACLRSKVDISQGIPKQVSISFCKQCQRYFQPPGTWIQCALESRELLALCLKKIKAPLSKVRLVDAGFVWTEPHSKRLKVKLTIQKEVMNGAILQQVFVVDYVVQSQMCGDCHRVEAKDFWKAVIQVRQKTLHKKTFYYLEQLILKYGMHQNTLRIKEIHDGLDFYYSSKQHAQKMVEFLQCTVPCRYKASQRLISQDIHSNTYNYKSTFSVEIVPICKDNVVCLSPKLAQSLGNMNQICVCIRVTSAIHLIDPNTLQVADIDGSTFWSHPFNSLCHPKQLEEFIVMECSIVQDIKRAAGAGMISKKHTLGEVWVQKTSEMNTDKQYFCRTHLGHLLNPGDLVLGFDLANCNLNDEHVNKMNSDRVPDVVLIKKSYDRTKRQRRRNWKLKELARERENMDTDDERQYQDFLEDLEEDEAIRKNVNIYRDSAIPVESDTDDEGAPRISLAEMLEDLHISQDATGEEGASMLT
UniProt Q02818: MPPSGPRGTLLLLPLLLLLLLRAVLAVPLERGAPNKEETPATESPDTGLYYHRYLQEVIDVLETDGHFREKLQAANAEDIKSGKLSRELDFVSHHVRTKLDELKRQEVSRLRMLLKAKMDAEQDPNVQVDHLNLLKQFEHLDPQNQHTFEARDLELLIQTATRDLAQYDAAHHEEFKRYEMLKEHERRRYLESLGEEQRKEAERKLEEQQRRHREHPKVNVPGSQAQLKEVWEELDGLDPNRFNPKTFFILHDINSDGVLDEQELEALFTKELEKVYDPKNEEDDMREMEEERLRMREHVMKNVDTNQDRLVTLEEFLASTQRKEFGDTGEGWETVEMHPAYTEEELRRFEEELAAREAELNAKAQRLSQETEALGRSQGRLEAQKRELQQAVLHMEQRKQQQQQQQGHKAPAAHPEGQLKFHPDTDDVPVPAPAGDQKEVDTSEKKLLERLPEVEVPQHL
UniProt Q13423: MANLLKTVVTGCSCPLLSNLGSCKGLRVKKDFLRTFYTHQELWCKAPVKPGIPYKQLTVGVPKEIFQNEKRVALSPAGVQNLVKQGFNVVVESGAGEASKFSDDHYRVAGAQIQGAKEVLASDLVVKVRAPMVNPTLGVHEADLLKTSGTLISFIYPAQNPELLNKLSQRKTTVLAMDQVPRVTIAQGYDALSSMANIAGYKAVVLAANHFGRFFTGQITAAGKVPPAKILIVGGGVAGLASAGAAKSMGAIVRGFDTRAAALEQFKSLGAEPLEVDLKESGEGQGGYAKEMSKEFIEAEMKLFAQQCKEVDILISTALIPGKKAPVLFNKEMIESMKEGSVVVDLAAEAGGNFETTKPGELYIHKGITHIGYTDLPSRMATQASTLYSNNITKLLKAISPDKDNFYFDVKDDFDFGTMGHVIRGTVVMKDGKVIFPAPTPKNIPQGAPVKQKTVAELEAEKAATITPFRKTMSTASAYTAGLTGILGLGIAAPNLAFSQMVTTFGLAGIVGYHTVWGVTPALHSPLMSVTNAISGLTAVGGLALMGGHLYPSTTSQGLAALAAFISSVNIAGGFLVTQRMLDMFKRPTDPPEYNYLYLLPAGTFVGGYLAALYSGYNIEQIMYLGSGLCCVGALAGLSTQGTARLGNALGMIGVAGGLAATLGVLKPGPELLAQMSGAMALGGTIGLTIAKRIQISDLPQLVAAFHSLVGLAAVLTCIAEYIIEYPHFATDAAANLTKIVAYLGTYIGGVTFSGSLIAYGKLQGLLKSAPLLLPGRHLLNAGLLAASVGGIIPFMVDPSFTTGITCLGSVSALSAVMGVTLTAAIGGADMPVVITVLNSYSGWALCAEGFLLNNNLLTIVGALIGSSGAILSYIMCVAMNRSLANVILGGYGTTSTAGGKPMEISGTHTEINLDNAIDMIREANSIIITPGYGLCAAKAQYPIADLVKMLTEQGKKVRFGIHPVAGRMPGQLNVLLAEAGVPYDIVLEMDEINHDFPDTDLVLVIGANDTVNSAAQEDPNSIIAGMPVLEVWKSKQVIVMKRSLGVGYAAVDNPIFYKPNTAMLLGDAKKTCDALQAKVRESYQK
UniProt P0C024: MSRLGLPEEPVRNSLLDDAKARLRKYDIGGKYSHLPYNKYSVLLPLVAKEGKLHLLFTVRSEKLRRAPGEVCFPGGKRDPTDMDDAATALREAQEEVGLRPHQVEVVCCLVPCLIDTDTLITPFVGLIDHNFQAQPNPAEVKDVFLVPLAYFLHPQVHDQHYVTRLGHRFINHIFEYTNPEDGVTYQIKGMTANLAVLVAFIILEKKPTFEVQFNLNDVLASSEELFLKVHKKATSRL
UniProt P16083: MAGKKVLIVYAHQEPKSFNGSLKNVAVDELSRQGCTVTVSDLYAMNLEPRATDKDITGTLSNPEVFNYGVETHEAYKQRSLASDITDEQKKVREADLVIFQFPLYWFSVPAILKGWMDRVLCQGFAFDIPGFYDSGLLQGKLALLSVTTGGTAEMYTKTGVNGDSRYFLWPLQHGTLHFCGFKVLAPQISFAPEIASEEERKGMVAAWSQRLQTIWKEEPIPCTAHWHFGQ
UniProt Q96RS6: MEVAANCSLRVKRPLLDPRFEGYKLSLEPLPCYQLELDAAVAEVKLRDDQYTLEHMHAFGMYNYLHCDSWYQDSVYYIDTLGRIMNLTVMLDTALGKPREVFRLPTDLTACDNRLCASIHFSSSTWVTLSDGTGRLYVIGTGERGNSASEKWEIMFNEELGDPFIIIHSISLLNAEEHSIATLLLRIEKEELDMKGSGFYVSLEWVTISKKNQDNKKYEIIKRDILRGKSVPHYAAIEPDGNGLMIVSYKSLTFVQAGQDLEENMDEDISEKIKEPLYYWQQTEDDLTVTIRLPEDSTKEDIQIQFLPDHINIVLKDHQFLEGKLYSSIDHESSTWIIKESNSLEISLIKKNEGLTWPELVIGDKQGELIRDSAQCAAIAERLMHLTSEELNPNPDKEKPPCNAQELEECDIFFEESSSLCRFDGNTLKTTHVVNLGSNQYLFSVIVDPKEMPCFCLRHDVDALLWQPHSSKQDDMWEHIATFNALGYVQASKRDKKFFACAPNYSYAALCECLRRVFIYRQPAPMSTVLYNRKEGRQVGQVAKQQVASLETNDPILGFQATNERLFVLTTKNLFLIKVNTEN
UniProt P80303: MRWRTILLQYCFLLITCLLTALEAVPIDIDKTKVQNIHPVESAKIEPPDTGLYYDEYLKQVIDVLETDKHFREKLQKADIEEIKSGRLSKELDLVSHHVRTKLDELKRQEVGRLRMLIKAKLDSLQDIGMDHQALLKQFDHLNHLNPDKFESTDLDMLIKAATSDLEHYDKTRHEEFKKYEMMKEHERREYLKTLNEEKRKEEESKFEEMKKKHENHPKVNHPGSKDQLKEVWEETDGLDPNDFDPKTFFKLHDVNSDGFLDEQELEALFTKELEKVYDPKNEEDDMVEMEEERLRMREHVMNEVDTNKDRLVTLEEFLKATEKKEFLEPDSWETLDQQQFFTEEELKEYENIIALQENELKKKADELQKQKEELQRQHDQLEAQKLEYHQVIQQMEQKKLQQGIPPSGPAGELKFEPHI
UniProt P49757: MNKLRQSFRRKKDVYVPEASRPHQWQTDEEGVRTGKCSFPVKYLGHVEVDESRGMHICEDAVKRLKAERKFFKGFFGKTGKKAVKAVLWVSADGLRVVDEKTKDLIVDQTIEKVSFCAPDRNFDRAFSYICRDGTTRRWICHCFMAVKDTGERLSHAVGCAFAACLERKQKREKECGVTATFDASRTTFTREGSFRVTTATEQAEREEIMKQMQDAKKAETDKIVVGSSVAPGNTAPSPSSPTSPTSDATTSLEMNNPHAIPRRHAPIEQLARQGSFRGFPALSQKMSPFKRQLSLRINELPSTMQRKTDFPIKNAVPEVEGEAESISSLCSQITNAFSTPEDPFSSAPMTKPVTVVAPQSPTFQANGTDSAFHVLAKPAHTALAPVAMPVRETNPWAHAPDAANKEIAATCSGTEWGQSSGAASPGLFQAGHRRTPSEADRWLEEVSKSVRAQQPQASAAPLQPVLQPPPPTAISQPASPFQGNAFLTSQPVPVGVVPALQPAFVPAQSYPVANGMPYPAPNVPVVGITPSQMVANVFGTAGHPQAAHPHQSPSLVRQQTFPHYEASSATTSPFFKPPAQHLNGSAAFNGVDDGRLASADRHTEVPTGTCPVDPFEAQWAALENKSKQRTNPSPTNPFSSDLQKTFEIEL
UniProt Q9NXX6: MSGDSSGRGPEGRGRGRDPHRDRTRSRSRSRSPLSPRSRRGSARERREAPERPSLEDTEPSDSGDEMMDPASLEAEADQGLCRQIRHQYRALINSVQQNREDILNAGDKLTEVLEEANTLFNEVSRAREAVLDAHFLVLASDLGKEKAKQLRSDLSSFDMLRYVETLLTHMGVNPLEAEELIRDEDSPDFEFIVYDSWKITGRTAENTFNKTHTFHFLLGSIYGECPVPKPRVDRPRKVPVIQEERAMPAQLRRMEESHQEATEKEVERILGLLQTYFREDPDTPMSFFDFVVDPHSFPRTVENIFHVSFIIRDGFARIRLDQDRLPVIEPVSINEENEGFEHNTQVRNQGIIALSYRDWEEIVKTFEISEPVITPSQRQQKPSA
UniProt Q96MG7: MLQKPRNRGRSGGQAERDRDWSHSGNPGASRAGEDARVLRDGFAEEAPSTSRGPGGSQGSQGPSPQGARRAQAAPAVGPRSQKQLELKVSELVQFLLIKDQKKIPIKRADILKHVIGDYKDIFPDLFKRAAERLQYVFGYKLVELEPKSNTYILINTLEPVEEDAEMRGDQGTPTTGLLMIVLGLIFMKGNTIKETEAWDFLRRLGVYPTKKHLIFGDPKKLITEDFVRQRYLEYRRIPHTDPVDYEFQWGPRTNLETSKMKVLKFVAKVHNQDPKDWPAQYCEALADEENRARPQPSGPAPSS
UniProt Q9Y314: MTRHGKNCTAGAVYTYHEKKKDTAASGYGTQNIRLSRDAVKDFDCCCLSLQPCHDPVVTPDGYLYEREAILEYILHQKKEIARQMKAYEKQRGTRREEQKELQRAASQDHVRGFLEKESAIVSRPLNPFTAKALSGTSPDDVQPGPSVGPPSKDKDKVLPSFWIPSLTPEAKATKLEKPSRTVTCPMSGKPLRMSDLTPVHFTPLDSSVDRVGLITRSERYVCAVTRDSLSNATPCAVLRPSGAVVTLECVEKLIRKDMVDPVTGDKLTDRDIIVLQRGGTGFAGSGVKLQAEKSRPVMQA
UniProt Q9Y639: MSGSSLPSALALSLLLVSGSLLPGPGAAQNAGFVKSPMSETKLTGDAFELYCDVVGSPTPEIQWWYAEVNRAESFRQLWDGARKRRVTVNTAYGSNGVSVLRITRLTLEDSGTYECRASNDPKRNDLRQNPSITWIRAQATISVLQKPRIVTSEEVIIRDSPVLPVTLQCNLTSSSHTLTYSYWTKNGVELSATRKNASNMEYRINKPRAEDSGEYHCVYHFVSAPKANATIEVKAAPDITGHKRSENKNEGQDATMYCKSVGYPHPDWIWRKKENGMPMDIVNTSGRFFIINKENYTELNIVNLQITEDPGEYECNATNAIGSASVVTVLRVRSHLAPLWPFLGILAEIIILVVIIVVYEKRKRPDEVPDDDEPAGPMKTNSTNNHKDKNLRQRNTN
UniProt Q9NZJ9: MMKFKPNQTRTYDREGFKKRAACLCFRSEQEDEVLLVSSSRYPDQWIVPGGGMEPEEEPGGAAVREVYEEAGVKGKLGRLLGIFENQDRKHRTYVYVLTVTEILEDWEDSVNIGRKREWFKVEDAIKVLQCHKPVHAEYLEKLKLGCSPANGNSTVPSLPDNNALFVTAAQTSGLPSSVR

[2] = compound: CC1=C(SC2=C1C(=N[C@H](C3=NN=C(N32)C)CC(=O)N)C4=CC=C(C=C4)Cl)C
Summary of the method: as §1

[3] = compound: CC1=C2C(=CC=C1)N=C(N(C2=O)C3=CC=CC=C3C)CN4C=NC5=C(N=CN=C54)N
Summary of the method: as §1

[4] = compound: Cc1sc2c(c1C)C(c1ccc(Cl)cc1)=N[C@@H](CC(=O)OC(C)(C)C)c1nnc(C)n1-2
Summary of the method: as §1

[5] = compound: c1ccc([C@@H]2C[C@H]2NC2CCNCC2)cc1
Summary of the method: as §1

Target: NPL (UniProt Q9BXD5)
- log2 fold change [1]: inactive: -0.22
- log2 fold change [2]: inactive: 0.113
- log2 fold change [3]: inactive: -0.065
- log2 fold change [4]: inactive: 0.103
- log2 fold change [5]: inactive: -0.242

Target: NTPCR (UniProt Q9BSD7)
- log2 fold change [1]: inactive: -0.015
- log2 fold change [2]: inactive: 0.067
- log2 fold change [3]: inactive: -0.015
- log2 fold change [4]: inactive: 0.034
- log2 fold change [5]: inactive: 0.029

Target: NT5DC2 isoform 2 (UniProt Q9H857)
- log2 fold change [1]: inactive: 0.021
- log2 fold change [2]: inactive: -0.026
- log2 fold change [3]: inactive: 0.009
- log2 fold change [4]: inactive: 0.051
- log2 fold change [5]: inactive: -0.022

Target: NMD3 (UniProt Q96D46)
- log2 fold change [1]: inactive: 0.003
- log2 fold change [2]: inactive: -0.012
- log2 fold change [3]: inactive: -0.003
- log2 fold change [4]: inactive: 0.013
- log2 fold change [5]: inactive: -0.028

Target: NPC1 (UniProt O15118)
- log2 fold change [1]: inactive: 0.014
- log2 fold change [2]: inactive: -0.032
- log2 fold change [3]: inactive: -0.023
- log2 fold change [4]: inactive: -0.059
- log2 fold change [5]: inactive: -0.03

Target: NUCB1 (UniProt Q02818)
- log2 fold change [1]: inactive: 0.016
- log2 fold change [2]: inactive: -0.002
- log2 fold change [3]: inactive: -0.007
- log2 fold change [4]: inactive: -0.03
- log2 fold change [5]: inactive: -0.017

Target: NNT (UniProt Q13423)
- log2 fold change [1]: inactive: -0.005
- log2 fold change [2]: inactive: 0.052
- log2 fold change [3]: inactive: 0
- log2 fold change [4]: inactive: 0.015
- log2 fold change [5]: inactive: 0.034

Target: NME6 (UniProt O75414)
- log2 fold change [1]: inactive: 0.016
- log2 fold change [2]: inactive: -0.062
- log2 fold change [3]: inactive: 0
- log2 fold change [4]: inactive: 0.015
- log2 fold change [5]: inactive: 0.008

Target: NUDT7 (UniProt P0C024)
- log2 fold change [1]: inactive: 0.135
- log2 fold change [2]: inactive: 0.15
- log2 fold change [3]: inactive: 0.05
- log2 fold change [4]: inactive: 0.157
- log2 fold change [5]: inactive: 0.025

Target: NUDT3 (UniProt O95989)
- log2 fold change [1]: inactive: -0.007
- log2 fold change [2]: inactive: -0.055
- log2 fold change [3]: inactive: -0.001
- log2 fold change [4]: inactive: 0.018
- log2 fold change [5]: inactive: -0.063

Target: NQO2 (UniProt P16083)
- log2 fold change [1]: inactive: -0.022
- log2 fold change [2]: inactive: -0.047
- log2 fold change [3]: inactive: -0.017
- log2 fold change [4]: inactive: 0
- log2 fold change [5]: inactive: -0.009

Target: NUDCD1 (UniProt Q96RS6)
- log2 fold change [1]: inactive: -0.015
- log2 fold change [2]: inactive: -0.005
- log2 fold change [3]: inactive: -0.008
- log2 fold change [4]: inactive: -0.001
- log2 fold change [5]: inactive: -0.023

Target: NUCB2 (UniProt P80303)
- log2 fold change [1]: inactive: 0.041
- log2 fold change [2]: inactive: -0.005
- log2 fold change [3]: inactive: -0.011
- log2 fold change [4]: inactive: -0.021
- log2 fold change [5]: inactive: 0.079

Target: NUDT16 (UniProt Q96DE0)
- log2 fold change [1]: inactive: 0.008
- log2 fold change [2]: inactive: -0.05
- log2 fold change [3]: inactive: -0.052
- log2 fold change [4]: inactive: -0.047
- log2 fold change [5]: inactive: -0.004

Target: NR3C1 isoform 3 (UniProt P04150)
- log2 fold change [1]: active: 0.292
- log2 fold change [2]: inactive: 0.034
- log2 fold change [3]: inactive: -0.001
- log2 fold change [4]: inactive: -0.035
- log2 fold change [5]: inactive: 0.084

Target: NUMB (UniProt P49757)
- log2 fold change [1]: inactive: 0.001
- log2 fold change [2]: inactive: 0.034
- log2 fold change [3]: inactive: 0.009
- log2 fold change [4]: inactive: 0.004
- log2 fold change [5]: inactive: -0.032

Target: NOC2L (UniProt Q9Y3T9)
- log2 fold change [1]: inactive: 0.004
- log2 fold change [2]: inactive: -0.019
- log2 fold change [3]: inactive: 0.009
- log2 fold change [4]: active: 0.324
- log2 fold change [5]: inactive: -0.012

Target: NUDT1 (UniProt P36639)
- log2 fold change [1]: inactive: 0.041
- log2 fold change [2]: inactive: -0.017
- log2 fold change [3]: inactive: -0.018
- log2 fold change [4]: inactive: 0.014
- log2 fold change [5]: inactive: -0.004

Target: NSMCE4A (UniProt Q9NXX6)
- log2 fold change [1]: inactive: 0.046
- log2 fold change [2]: inactive: 0.002
- log2 fold change [3]: inactive: -0.059
- log2 fold change [4]: inactive: 0.117
- log2 fold change [5]: inactive: 0.017

Target: NSMCE3 (UniProt Q96MG7)
- log2 fold change [1]: inactive: 0.019
- log2 fold change [2]: inactive: 0.053
- log2 fold change [3]: inactive: 0.002
- log2 fold change [4]: inactive: 0.017
- log2 fold change [5]: inactive: 0.031

Target: NOSIP (UniProt Q9Y314)
- log2 fold change [1]: inactive: 0.018
- log2 fold change [2]: inactive: -0.005
- log2 fold change [3]: inactive: -0.018
- log2 fold change [4]: inactive: 0.019
- log2 fold change [5]: inactive: 0.012

Target: NPTN (UniProt Q9Y639)
- log2 fold change [1]: inactive: 0.026
- log2 fold change [2]: inactive: -0.045
- log2 fold change [3]: inactive: -0.038
- log2 fold change [4]: inactive: -0.018
- log2 fold change [5]: inactive: -0.006

Target: NUDT4 (UniProt Q9NZJ9)
- log2 fold change [1]: inactive: 0.037
- log2 fold change [2]: inactive: -0.025
- log2 fold change [3]: inactive: 0.004
- log2 fold change [4]: inactive: 0.075
- log2 fold change [5]: inactive: 0.242

Target: NOP14 (UniProt P78316)
- log2 fold change [1]: inactive: 0.01
- log2 fold change [2]: inactive: 0.015
- log2 fold change [3]: inactive: 0.027
- log2 fold change [4]: inactive: 0.006
- log2 fold change [5]: inactive: -0.018

Target: NSUN5 isoform 2 (UniProt Q96P11)
- log2 fold change [1]: inactive: -0.026
- log2 fold change [2]: inactive: 0.02
- log2 fold change [3]: inactive: -0.049
- log2 fold change [4]: inactive: 0.015
- log2 fold change [5]: inactive: 0.033
